{"source": "patent US20170368148A1", "about": "“USES OF A PTHrP ANALOGUE IN REDUCING FRACTURE RISK” (RADIUS HEALTH, INC., priority 2015, published 2017)", "key": {"[1]": {"tested_on": "postmenopausal women with osteoporosis", "assay": "ACTIVExtend study: fractures at month 25 (abaloparatide or placebo 18 months, then alendronate 6 months)", "type": "in vivo, human"}, "[2]": {"tested_on": "postmenopausal women with osteoporosis", "assay": "ACTIVExtend: percentage of patients with BMD increase at 25 months", "type": "in vivo, human", "conditions": "abaloparatide 18 months then alendronate 6 months"}, "[3]": {"tested_on": "postmenopausal women", "assay": "Efficacy versus baseline fracture risk (FRAX), Poisson regression", "type": "in vivo, human", "conditions": "followed for up to 2 years; FRAX analysis"}, "[4]": {"tested_on": "ovariectomized (OVX) osteopenic rats", "assay": "OVX osteopenic rats: bone microarchitecture by μCT", "type": "in vivo, rat", "conditions": "for BD, L4 lumbar spine (μCT) / BD, femoral trabecular bone (μCT) / BV, L4 lumbar spine (μCT) / BV, femoral cortical bone (μCT) / BV, femoral trabecular bone (μCT) / BV/TV, L4 lumbar spine (μCT) / BV/TV, femoral cortical bone (μCT) / BV/TV, femoral trabecular bone (μCT) / Conn. D, L4 lumbar spine (μCT) / Conn. D, femoral trabecular bone (μCT) / Ct. Th, femoral cortical bone (μCT) / MV, femoral cortical bone (μCT) / SMI, L4 lumbar spine (μCT) / SMI, femoral trabecular bone (μCT) / TV, L4 lumbar spine (μCT) / TV, femoral cortical bone (μCT) / TV, femoral trabecular bone (μCT) / Tb. N, L4 lumbar spine (μCT) / Tb. N, femoral trabecular bone (μCT) / Tb. Sp, L4 lumbar spine (μCT) / Tb. Sp, femoral trabecular bone (μCT) / Tb. Th, L4 lumbar spine (μCT) / Tb. Th, femoral trabecular bone (μCT): mean ± SD"}}, "note": "Where “and” joins values, the source holds several entries; their conditions need not be identical. Identical values can stand only once. Not every detail of the peptide structures is certain; ends, links or a residue may be inferred. Marks after values point to notes of the source that are not given here.", "data": [{"compound": "CC[C@H](C)[C@H](NC(=O)[C@H](CO)NC(=O)[C@H](CCCCN)NC(=O)CNC(=O)[C@H](CCCCN)NC(=O)[C@H](CC(=O)O)NC(=O)[C@H](Cc1c[nH]cn1)NC(=O)[C@H](CC(C)C)NC(=O)[C@H](CC(C)C)NC(=O)[C@H](CCC(N)=O)NC(=O)[C@H](Cc1c[nH]cn1)NC(=O)[C@H](CCC(=O)O)NC(=O)[C@H](CO)NC(=O)[C@@H](NC(=O)[C@H](C)N)C(C)C)C(=O)N[C@@H](CCC(N)=O)C(=O)N[C@@H](CC(=O)O)C(=O)N[C@@H](CC(C)C)C(=O)N[C@@H](CCCNC(=N)N)C(=O)N[C@@H](CCCNC(=N)N)C(=O)N[C@@H](CCCNC(=N)N)C(=O)N[C@@H](CCC(=O)O)C(=O)N[C@@H](CC(C)C)C(=O)N[C@@H](CC(C)C)C(=O)N[C@@H](CCC(=O)O)C(=O)N[C@@H](CCCCN)C(=O)N[C@@H](CC(C)C)C(=O)N[C@@H](CC(C)C)C(=O)NC(C)(C)C(=O)N[C@@H](CCCCN)C(=O)N[C@@H](CC(C)C)C(=O)N[C@@H](Cc1c[nH]cn1)C(=O)N[C@H](C(=O)N[C@@H](C)C(N)=O)[C@@H](C)O", "note": "[abaloparatide, [Glu^22,25, Leu^23,28,31, Aib^29, Lys^26,30]hPTHrP(1-34)NH2]", "values": [{"measurement": "Patients with a vertebral fracture", "setting": "[1]; during the 6 months alendronate treatment period, after abaloparatide", "value": "no patients"}, {"measurement": "Fracture Risk Reduction PBO/ALN v. ABL/ALN, incident clinical fractures", "setting": "[1]; month 25", "value": 45, "unit": "%"}, {"measurement": "Fracture Risk Reduction PBO/ALN v. ABL/ALN, incident non-vertebral fractures", "setting": "[1]; month 25", "value": 52, "unit": "%"}, {"measurement": "Fracture Risk Reduction PBO/ALN v. ABL/ALN, major osteoporotic fractures", "setting": "[1]; month 25", "value": 58, "unit": "%"}, {"measurement": "Percentage of patients with BMD increase >0% at the spine, hip and femoral neck", "setting": "[2]", "value": 83.1, "unit": "%"}, {"measurement": "Percentage of patients with BMD increase >3% at the spine, hip and femoral neck", "setting": "[2]", "value": 51.7, "unit": "%"}, {"measurement": "Percentage of patients with BMD increase >6% at the spine, hip and femoral neck", "setting": "[2]", "value": 20.4, "unit": "%"}, {"measurement": "Decrease in major osteoporotic fracture (MOF) compared to placebo", "setting": "[3]", "value": 69, "unit": "%"}, {"measurement": "Decrease in risk of any clinical fracture (AF) compared to placebo", "setting": "[3]", "value": 43, "unit": "%"}, {"measurement": "Increase in BV/TV of distal femur trabecular bone compared to OVX-Vehicle", "setting": "[4]; 5 μg/kg, 6 weeks", "value": 145, "unit": "%"}, {"measurement": "Increase in BV/TV of distal femur trabecular bone over OVX-Veh", "setting": "[4]; 5 μg/kg, 6 weeks", "value": "approximately 2.5 fold"}, {"measurement": "Increase in BV/TV of vertebral trabecular bone over OVX-Veh", "setting": "[4]; 5 μg/kg, 6 weeks", "value": "56% and 57%"}, {"measurement": "BD, L4 lumbar spine (μCT)", "setting": "[4]; 5 μg/kg, 6 weeks", "value": "570 ± 46 ^ mg/mm^2"}, {"measurement": "BD, femoral trabecular bone (μCT)", "setting": "[4]; 5 μg/kg, 6 weeks", "value": "421 ± 65", "unit": "mg/mm^2"}, {"measurement": "BV, L4 lumbar spine (μCT)", "setting": "[4]; 5 μg/kg, 6 weeks", "value": "16.6 ± 2.7***^§§ mm^3"}, {"measurement": "BV, femoral cortical bone (μCT)", "setting": "[4]; 5 μg/kg, 6 weeks", "value": "2.98 ± 0.18**^§§§ mm^3"}, {"measurement": "BV, femoral trabecular bone (μCT)", "setting": "[4]; 5 μg/kg, 6 weeks", "value": "10.76 ± 2.4***^§§§ mm^3"}, {"measurement": "BV/TV, L4 lumbar spine (μCT)", "setting": "[4]; 5 μg/kg, 6 weeks", "value": "51.7 ± 4.7 ^ %"}, {"measurement": "BV/TV, femoral cortical bone (μCT)", "setting": "[4]; 5 μg/kg, 6 weeks", "value": "66.8 ± 4", "unit": "%"}, {"measurement": "BV/TV, femoral trabecular bone (μCT)", "setting": "[4]; 5 μg/kg, 6 weeks", "value": "37.2 ± 6.5", "unit": "%"}, {"measurement": "Conn. D, L4 lumbar spine (μCT)", "setting": "[4]; 5 μg/kg, 6 weeks", "value": "48.0 ± 5.4***^§§§ 1/mm^3"}, {"measurement": "Conn. D, femoral trabecular bone (μCT)", "setting": "[4]; 5 μg/kg, 6 weeks", "value": "53.1 ± 10.6***^§§§ 1/mm^3"}, {"measurement": "Ct. Th, femoral cortical bone (μCT)", "setting": "[4]; 5 μg/kg, 6 weeks", "value": "0.703 ± 0.04", "unit": "mm"}, {"measurement": "MV, femoral cortical bone (μCT)", "setting": "[4]; 5 μg/kg, 6 weeks", "value": "1.50 ± 0.29 ^ mm^3"}, {"measurement": "SMI, L4 lumbar spine (μCT)", "setting": "[4]; 5 μg/kg, 6 weeks", "value": "−1.33 ± 0.56 ^"}, {"measurement": "SMI, femoral trabecular bone (μCT)", "setting": "[4]; 5 μg/kg, 6 weeks", "value": "−0.39 ± 0.46"}, {"measurement": "TV, L4 lumbar spine (μCT)", "setting": "[4]; 5 μg/kg, 6 weeks", "value": "32.3 ± 5.3 ^ mm^3"}, {"measurement": "TV, femoral cortical bone (μCT)", "setting": "[4]; 5 μg/kg, 6 weeks", "value": "4.48 ± 0.43*^§§§ mm^3"}, {"measurement": "TV, femoral trabecular bone (μCT)", "setting": "[4]; 5 μg/kg, 6 weeks", "value": "28.9 ± 3.5 ^ mm^3"}, {"measurement": "Tb. N, L4 lumbar spine (μCT)", "setting": "[4]; 5 μg/kg, 6 weeks", "value": "3.91 ± 0.30*^§§§ 1/mm"}, {"measurement": "Tb. N, femoral trabecular bone (μCT)", "setting": "[4]; 5 μg/kg, 6 weeks", "value": "2.43 ± 0.66***^§§§ 1/mm"}, {"measurement": "Tb. Sp, L4 lumbar spine (μCT)", "setting": "[4]; 5 μg/kg, 6 weeks", "value": "0.219 ± 0.03", "unit": "mm"}, {"measurement": "Tb. Sp, femoral trabecular bone (μCT)", "setting": "[4]; 5 μg/kg, 6 weeks", "value": "0.494 ± 0.17", "unit": "mm"}, {"measurement": "Tb. Th, L4 lumbar spine (μCT)", "setting": "[4]; 5 μg/kg, 6 weeks", "value": "0.136 ± 0.01", "unit": "mm"}, {"measurement": "Tb. Th, femoral trabecular bone (μCT)", "setting": "[4]; 5 μg/kg, 6 weeks", "value": "0.128 ± 0.01", "unit": "mm"}, {"measurement": "Higher BV/TV of vertebral trabecular bone compared to Sham-Veh", "setting": "[4]; 20 μg/kg, 6 weeks", "value": 14, "unit": "%"}, {"measurement": "Increase in BV/TV of distal femur trabecular bone compared to OVX-Vehicle", "setting": "[4]; 20 μg/kg, 6 weeks", "value": 270, "unit": "%"}, {"measurement": "Increase in BV/TV of distal femur trabecular bone over OVX-Veh", "setting": "[4]; 20 μg/kg, 6 weeks", "value": "~3.7", "unit": "fold"}, {"measurement": "Increase in BV/TV of vertebral trabecular bone over OVX-Veh", "setting": "[4]; 20 μg/kg, 6 weeks", "value": "77% and 78%"}, {"measurement": "BD, L4 lumbar spine (μCT)", "setting": "[4]; 20 μg/kg, 6 weeks", "value": "631 ± 50", "unit": "mg/mm^2"}, {"measurement": "BD, femoral trabecular bone (μCT)", "setting": "[4]; 20 μg/kg, 6 weeks", "value": "596 ± 84 ^ mg/mm^2"}, {"measurement": "BV, L4 lumbar spine (μCT)", "setting": "[4]; 20 μg/kg, 6 weeks", "value": "18.0 ± 2.8 ^ mm^3"}, {"measurement": "BV, femoral cortical bone (μCT)", "setting": "[4]; 20 μg/kg, 6 weeks", "value": "3.04 ± 0.28***^§§§ mm^3"}, {"measurement": "BV, femoral trabecular bone (μCT)", "setting": "[4]; 20 μg/kg, 6 weeks", "value": "16.58 ± 3.8 ^ mm^3"}, {"measurement": "BV/TV, L4 lumbar spine (μCT)", "setting": "[4]; 20 μg/kg, 6 weeks", "value": "58.6 ± 5.3", "unit": "%"}, {"measurement": "BV/TV, femoral cortical bone (μCT)", "setting": "[4]; 20 μg/kg, 6 weeks", "value": "70.0 ± 3", "unit": "%"}, {"measurement": "BV/TV, femoral trabecular bone (μCT)", "setting": "[4]; 20 μg/kg, 6 weeks", "value": "56.2 ± 7.9 ^ %"}, {"measurement": "Conn. D, L4 lumbar spine (μCT)", "setting": "[4]; 20 μg/kg, 6 weeks", "value": "42.1 ± 7.2***^§§§ 1/mm^3"}, {"measurement": "Conn. D, femoral trabecular bone (μCT)", "setting": "[4]; 20 μg/kg, 6 weeks", "value": "34.7 ± 9.0*^§§§ 1/mm^3"}, {"measurement": "Ct. Th, femoral cortical bone (μCT)", "setting": "[4]; 20 μg/kg, 6 weeks", "value": "0.723 ± 0.05", "unit": "mm"}, {"measurement": "MV, femoral cortical bone (μCT)", "setting": "[4]; 20 μg/kg, 6 weeks", "value": "1.32 ± 0.26 ^ mm^3"}, {"measurement": "SMI, L4 lumbar spine (μCT)", "setting": "[4]; 20 μg/kg, 6 weeks", "value": "−2.23 ± 0.92"}, {"measurement": "SMI, femoral trabecular bone (μCT)", "setting": "[4]; 20 μg/kg, 6 weeks", "value": "−3.26 ± 1.73"}, {"measurement": "TV, L4 lumbar spine (μCT)", "setting": "[4]; 20 μg/kg, 6 weeks", "value": "30.7 ± 4.6 ^ mm^3"}, {"measurement": "TV, femoral cortical bone (μCT)", "setting": "[4]; 20 μg/kg, 6 weeks", "value": "4.35 ± 0.49^§§ mm^3"}, {"measurement": "TV, femoral trabecular bone (μCT)", "setting": "[4]; 20 μg/kg, 6 weeks", "value": "29.2 ± 3.6 ^ mm^3"}, {"measurement": "Tb. N, L4 lumbar spine (μCT)", "setting": "[4]; 20 μg/kg, 6 weeks", "value": "4.05 ± 0.27***^§§§ 1/mm"}, {"measurement": "Tb. N, femoral trabecular bone (μCT)", "setting": "[4]; 20 μg/kg, 6 weeks", "value": "3.01 ± 0.52***^§§§ 1/mm"}, {"measurement": "Tb. Sp, L4 lumbar spine (μCT)", "setting": "[4]; 20 μg/kg, 6 weeks", "value": "0.201 ± 0.02", "unit": "mm"}, {"measurement": "Tb. Sp, femoral trabecular bone (μCT)", "setting": "[4]; 20 μg/kg, 6 weeks", "value": "0.399 ± 0.11", "unit": "mm"}, {"measurement": "Tb. Th, L4 lumbar spine (μCT)", "setting": "[4]; 20 μg/kg, 6 weeks", "value": "0.152 ± 0.01", "unit": "mm"}, {"measurement": "Tb. Th, femoral trabecular bone (μCT)", "setting": "[4]; 20 μg/kg, 6 weeks", "value": "0.186 ± 0.03", "unit": "mm"}, {"measurement": "Increase in femur midshaft BV/TV compared to OVX-Veh", "setting": "[4]; 20 μg/kg, six weeks", "value": 6, "unit": "%"}, {"measurement": "Increase in femur midshaft BV/TV compared to Sham-Veh", "setting": "[4]; 20 μg/kg, six weeks", "value": 4, "unit": "%"}]}]}
